According to article doi:10.1101/2021.03.04.433881:
Where two headings read alike, the source gives them in different places. These are yes or no findings as the source states them, for the method shown. In cells and extracts the contact can be indirect. Some entries that bind do so weakly or less than the wild type. For part of these data: Sequences can lack the tags named with a protein.

Amino acid sequences for entries named in this document (tags omitted).
UniProt Q8CEL2: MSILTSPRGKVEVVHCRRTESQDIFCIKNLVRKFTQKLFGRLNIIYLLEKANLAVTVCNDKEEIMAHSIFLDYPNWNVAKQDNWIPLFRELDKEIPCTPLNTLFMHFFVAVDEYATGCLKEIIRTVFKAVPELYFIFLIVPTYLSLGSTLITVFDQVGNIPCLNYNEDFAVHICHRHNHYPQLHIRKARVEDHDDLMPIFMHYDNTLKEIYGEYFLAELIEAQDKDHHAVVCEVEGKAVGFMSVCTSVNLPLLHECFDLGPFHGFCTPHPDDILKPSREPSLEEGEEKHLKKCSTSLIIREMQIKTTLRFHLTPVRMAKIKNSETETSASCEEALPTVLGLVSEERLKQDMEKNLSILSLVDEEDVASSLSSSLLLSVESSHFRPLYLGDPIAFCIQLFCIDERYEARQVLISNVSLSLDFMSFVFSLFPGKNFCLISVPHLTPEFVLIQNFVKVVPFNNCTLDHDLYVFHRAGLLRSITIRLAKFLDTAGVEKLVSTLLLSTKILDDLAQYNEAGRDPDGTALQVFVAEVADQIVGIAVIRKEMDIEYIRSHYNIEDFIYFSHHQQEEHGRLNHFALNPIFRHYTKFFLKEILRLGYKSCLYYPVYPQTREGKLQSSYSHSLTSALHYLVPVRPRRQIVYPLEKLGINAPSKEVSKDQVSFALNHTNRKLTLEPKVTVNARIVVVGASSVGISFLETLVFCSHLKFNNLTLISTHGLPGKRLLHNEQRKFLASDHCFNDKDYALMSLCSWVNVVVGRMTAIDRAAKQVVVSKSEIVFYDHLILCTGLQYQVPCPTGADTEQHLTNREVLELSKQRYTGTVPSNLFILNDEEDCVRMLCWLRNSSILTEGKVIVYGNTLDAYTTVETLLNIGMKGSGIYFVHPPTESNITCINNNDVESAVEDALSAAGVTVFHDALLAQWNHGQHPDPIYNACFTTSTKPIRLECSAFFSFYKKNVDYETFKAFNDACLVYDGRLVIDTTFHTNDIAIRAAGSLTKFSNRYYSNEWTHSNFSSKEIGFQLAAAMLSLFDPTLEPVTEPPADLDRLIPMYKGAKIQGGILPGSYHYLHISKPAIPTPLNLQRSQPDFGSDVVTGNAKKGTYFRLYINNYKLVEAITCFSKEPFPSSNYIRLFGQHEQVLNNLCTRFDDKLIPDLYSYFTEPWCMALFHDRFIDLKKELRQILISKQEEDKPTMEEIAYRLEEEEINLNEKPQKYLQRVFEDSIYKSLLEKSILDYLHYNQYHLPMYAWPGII
UniProt Q9ESG2: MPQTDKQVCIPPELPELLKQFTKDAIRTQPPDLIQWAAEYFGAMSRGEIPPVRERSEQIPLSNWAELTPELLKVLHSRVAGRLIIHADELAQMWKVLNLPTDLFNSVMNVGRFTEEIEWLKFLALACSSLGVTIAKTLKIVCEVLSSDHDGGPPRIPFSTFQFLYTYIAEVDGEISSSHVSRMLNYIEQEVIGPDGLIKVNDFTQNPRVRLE
UniProt Q8BRC6: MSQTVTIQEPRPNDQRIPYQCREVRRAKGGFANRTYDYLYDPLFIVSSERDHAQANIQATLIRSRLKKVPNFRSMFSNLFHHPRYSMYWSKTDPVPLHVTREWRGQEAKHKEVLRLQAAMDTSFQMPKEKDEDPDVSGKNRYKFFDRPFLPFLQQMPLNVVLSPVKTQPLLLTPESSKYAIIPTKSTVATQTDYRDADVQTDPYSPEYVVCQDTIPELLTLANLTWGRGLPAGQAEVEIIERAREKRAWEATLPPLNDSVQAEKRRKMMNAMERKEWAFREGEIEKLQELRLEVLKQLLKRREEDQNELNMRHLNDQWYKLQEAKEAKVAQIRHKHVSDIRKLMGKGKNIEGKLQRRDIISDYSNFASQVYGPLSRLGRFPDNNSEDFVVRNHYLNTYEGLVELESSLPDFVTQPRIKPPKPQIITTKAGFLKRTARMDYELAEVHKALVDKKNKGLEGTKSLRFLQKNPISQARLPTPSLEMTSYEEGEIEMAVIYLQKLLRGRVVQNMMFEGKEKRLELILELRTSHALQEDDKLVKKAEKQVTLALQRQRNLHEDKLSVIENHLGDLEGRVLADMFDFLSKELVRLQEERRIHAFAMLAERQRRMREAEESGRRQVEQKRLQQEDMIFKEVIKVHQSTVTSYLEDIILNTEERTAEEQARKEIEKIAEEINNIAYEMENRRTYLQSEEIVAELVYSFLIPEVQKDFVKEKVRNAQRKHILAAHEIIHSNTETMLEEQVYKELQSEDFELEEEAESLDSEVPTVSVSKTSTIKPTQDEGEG
UniProt Q6PDL0: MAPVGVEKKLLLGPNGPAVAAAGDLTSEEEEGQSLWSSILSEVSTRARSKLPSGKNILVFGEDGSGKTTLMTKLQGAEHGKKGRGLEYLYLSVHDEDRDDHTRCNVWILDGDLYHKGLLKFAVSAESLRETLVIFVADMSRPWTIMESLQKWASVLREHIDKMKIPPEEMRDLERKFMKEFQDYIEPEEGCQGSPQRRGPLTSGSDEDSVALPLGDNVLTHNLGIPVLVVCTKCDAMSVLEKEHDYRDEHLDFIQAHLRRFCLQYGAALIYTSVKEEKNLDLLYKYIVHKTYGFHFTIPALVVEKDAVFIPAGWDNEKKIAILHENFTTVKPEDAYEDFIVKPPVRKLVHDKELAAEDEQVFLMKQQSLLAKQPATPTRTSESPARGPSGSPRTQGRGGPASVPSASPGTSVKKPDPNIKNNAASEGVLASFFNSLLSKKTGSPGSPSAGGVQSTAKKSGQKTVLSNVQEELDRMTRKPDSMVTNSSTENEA

Tests used:
[1] = target: CFAP61 (mouse), FLAG- or HA-tagged (mouse) (UniProt Q8CEL2); experiment: co-IP
[2] = target: CFAP61 (mouse), FLAG- or HA-tagged (mouse) (UniProt Q8CEL2); experiment: co-IP; remark: listed apart in the source

| binding [1] | binding [2] | Molecule |
| --- | --- | --- |
| binds |  | ROPN1 (mouse), FLAG- or HA-tagged (from UniProt Q9ESG2 1-212) |
|  | binds | RSPH3A (mouse), FLAG- or HA-tagged (protein, UniProt Q3UFY4 1-516) MAATNIWAALPAKKRPLHQRARRPAGGRGREPEVPFTTDPSGNPAGRNCLEFLPPGGTSGCSATDGGATVPLALRPFLRERRPLGSQHPCPWHYLQVSDYDDSLAPTCFRAHLHRRGSSSTLNQASAMTDPNPRTAEASGLYTYSSRPRAVACQRRRHRDSILQPVEEPMSYGNIMYDRRVIRGNTYALPTGQVPGQPDPLELQRQQQARRRALARKRAQEQLKPRTPEPVEGRKHVDIQTELYLEEIADRIVEVDMECQTDAFLDRPPTPLFIPAKTGKDVATQILGGELFDFDLEVKPMLEVLVGKTIEQSLLEVMEEEELANLRARQYAYEEIRNVELAEVQRLEEQERRHREEKERRKKQQWEIVHKRNETLQKISALIFARQYLANLLPSVFDKLRNSGFFYDPIERDIEVGFLPWLMNEVEKSMEHSMVGRTVLDMLIRDVVERRINDYEHKEAMPPGQKTNVINGPNTVTDPSVTTLHTQKPVLDRVSSQPAPSQERKPVEEGGHLMAE |
|  | binds | RSPH9 (mouse), FLAG- or HA-tagged (protein, UniProt Q9D9V4 1-276) MDADSLLLSLELASGSGQGLSPDRRASLLTSLMLVKRDYRFARVLFWGRILGLVADYYIAQGLSEDQLAPRKTLYSLNCTEWSLLPPATEEMAMQISVVSGRFMGDPSHEYEHTELQKVNEGEKVFDEEVVVQIKEETRLVSIIDQIDKAVAIIPRGALFKTPFGVTHVNRTFEGLPLSEVRKLSSYFHFREAIDLKNKTLLEKSDLEPSLDFLDSLEYDIPRGSWSIQMERGNALVVLRSLLWPGLTFYHAPRTKNYGYIYVGTGEKNMDLPFML |
|  | binds | WDR35 (mouse), FLAG- or HA-tagged (protein, UniProt Q8BND3 1-1181) MFFYLSKKIAVPNNVKLKCISWNKDQGFIACGGEDGLLKVLRLETQTDDSKLRGLAAPSNLSMNQNLEGHSGAVQVVTWNEQYQKLTTSDQNGLIIVWMLYKGSWYEEMINNRNKSVVRSMSWNADGQKICIVYEDGAVIVGSVDGNRIWGKDLKGIQLCHVTWSADSKILLFGMANGEIHIYDNQGNFIMKMKLNCLVNVTGAISIAGIHWYHGTEGYVEPDCPCLAICFDNGRCQIMRHENDQNPVLIDTGMYVVGIQWNHIGSVLAVAGSQKVVTQDKDINIVQFYTPFGEHLGTLKVPGKQMCSLSWEGGGLKIALAVDSFIYFANIRPDYKWGYCSNTVVYAYTRPDRPEYCVVFWDTKNSEKYVKYVKSLISITTCGDFCILATKADENHPQEENEMETFGATFVLVLCNSIGTPLDPKYIDLVPLFVAMTKTHVIAASKEAFYTWQYRVAKKLTALEINQITRSRKEGRERIYHVDDVPSGSVDGVFDYSKAIQGTRDPICAITASDKTLIVGRESGVIQRYSFPNVALIQKYSLDCRACQLSLNCNSSRLAIIDIAGVLTFFDLDTRVTDSTGQQVVGELLKLERKDVWDMKWAKDNPDLFAMMEKTRMYVFRNLDPEEPIQTSGYICNFEDLEIKSVLLDEILKDPEHPSKDYIMNFEIRSLRDSRALIEKVGIEDASQFIEDNPHPRLWRLLAEAALQKLDLYTAQQAFVRCKDYQGIKFVKLLGNLQSESMKQAEVIAYFGRFEDAERMYQDMDRRDLAIGLRMKLGDWFRVLQLLKTGSGDADDSLLEQANNAIGEYFADRQKWQNAVQYYVKGRNQERLAECYYMLEDYEGLETLANSLPENHKLLPEIAQMFVRVGMCEQAVSAFLKCNQPKAAVDTCVHLNQWNKAVELAKSHSMKEIGSLLARYASHLLEKNKTLDAIELYRKASYFFDAAKLMYKIADEEAKKRTKPLRVKKLYVLSALLIEQYHEQMKNAQRGKVKGKNSEATSALAGLLEEEVLSTTSRFTDNAWRGAEAYHFFILAQRQLYEGYVDTALKTALHLRDYEDIIPSVEIYSLLALCACASRAFGTCSKAFIKLESLETLSAEQKQQYEDLALEIFTKHTPKDNRKSELNSLLEGGEGKLPTCIATGSPIIEYQFWVCKVCKHYVLAQEISNYNFCPLCHSSVE |
|  | binds | ROPN1L (mouse), FLAG- or HA-tagged (protein, UniProt Q9EQ00 1-218) MPLPDTMFCAQQIHIPPELPDILKQFTKAAIRTQPADVLQWSAGYFSALSRGDPLPVKDRIEMPVATQKTDTGLTQGLLKVLHKQCSHKQYVELADLEKKWKNLCLPVEKLRTILELDPCEDKIEWIKFLALGCSSLGRTLNTAMKNVCEILTSDPEGGPARIPFETFAYVYQYLSGLDPELPAVETENYLTSLRLMSESRKNGMIGLSDFFVGKKII |

The next lines start with the molecule.

| Molecule | binding [1] | binding [2] |
| --- | --- | --- |
| MAATS1 (mouse), FLAG- or HA-tagged (from UniProt Q8BRC6 1-783) | binds |  |
| DYNCLI2 (mouse), FLAG- or HA-tagged (from UniProt Q6PDL0 1-492) | binds |  |
| IFT74 (mouse), FLAG- or HA-tagged (protein, UniProt Q8BKE9 1-600) MASNHKSSAPRPISRGGIGLTGRPPSGIRPPSGNVRVATAMPPTTARPGSRGGPLGTGGVLSSQIKVADRPVTQQGLSGMKTGMKGPQRQILDKSYYLGLLRSKISELTTEINKLQKEIEMYNQENSVYLSYEKRAETLAVEIKDFQGQLADYNMLVDKLNTNTEMEEVMSDYNMLKAQNDRETQSMDVIFTERQAKEKQIRSVEEEVEQEKQAADGIIKNMSPEKQVKYIEMKTTNEKLLQELDTLQQQLDSLNMKKESLETEIAHSQVKQEAVLLYEKLYELESHRDQMIAEDKSMGSPMEERERLLKQVKEDNQEIASMERQLTDIKEKINQFSEEIRQLDMDLEEHQGEMNQKYKELKKREENMDAFIETFEETKNQELERKAQIEASIITLLEHCSRNINRMKQISSITNQELKMMQDDLSFKSTEMQKSQTTARNLTSDSQRLQLDLQKMELLESKMTEEQQSLKNKIKQMTADLETYSDLAALKSSAEEKKKKLHQERTVLSTHRNAFKKIMEKLTSDYDTLKRQLQDNETHAQLTNLERKWQHLEQNNFVMKEFIATKSQESDYQPVIKNVMKQIAEYNKTIMDALHNASRS |  | no binding |
| IFT22 (mouse), FLAG- or HA-tagged (protein, UniProt Q9DAI2 1-185) MLKAKILFVGPCESGKTVLANFLTESSDITEYNPTQGVRILEFENPHVTSNNKGTGCEFELWDCGGDSKFESCWPALMKDAHGVVIVFNADIPSHLKEIEMWYSCFVQQQFLQDSHCMLVAHHKPGSGGERGSLALSPPLNKLKLVHSNLEEDPEEVRVEFIKYLKSIINSMSESRDREEMLIIT |  | binds |
| ARMC4 (mouse), FLAG- or HA-tagged (protein, UniProt B2RY50 1-1037) MGVALTRLAQWTAAGYETGTLEITPLNESILNEITKFVESFSYKYPQEAKFVFVEPLEWKTYLEPSAFELGYVVSATTAESEETGKDGQPLLFLSVPYIKVRSFGQLSQLLSIATDSKLQEAQACIEANRDPVVKILGPDYNEMKEDPTRLTLLDTIIKDKETYMKRKVAILLKQLDLHLLNHSLKYISLEISLNPGTFKKDIELLKRFSGKGEQTVLESIEYTSDYEFSNGCRAPPWRQIQGEICYVLVKPHDMETLCLTCSTEGVFLNGGKTEEEGEINYERKGEIYKDLVTCLKDKSPVFSENMSKHEIRFTEEQQKDNQIFEKPKTEDGHSSVAGSEKSKIEKISFGKSPMTKRLEPSLNWRVTVDYKDHKSSIKDSQEEKQGKLEKSSSVSVAPSRAQSHRKGGEKVEETVSESSSESEEDEEPPDHRQEANADLPSEYWQIQKLVKYLKGGNQTATVIALCSMRDFNLAQETCQLAIRDVGGLEVLINLLDTDEVKCKIGSLKILKEISHNPQIRRNIVDLGGLPIMVNILDSPHKSLKCLSAETIANVAKFKRARRAVRQHGGITKLVALLDCGQNSTEPTQPSLYETRDVEVARCGALALWSCSKSHSNKEAIRKAGGIPLLARLLKTSHENMLIPVVGTLQECASEENYRAAIKAERIIENLVKNLNSENEQLQEHCAMAIYQCAEDEETRDLVRLHGGLKPLASLLNNTDNKERLAAVTGAIWKCSISKENVIKFREYKAIETLVGLLTDQPEEVLVNVVGALGECCQEYENRVLVRKCGGIQPLVNLLVGINQALLVNVTKAVGACAVEPESMAIIDRLDGVRLLWSLLKNPHPDVKASAAWALCPCIENAKDAGEMVRSFVGGLELVVNLLKSDNKEVLASVCAAITNIAKDQENLAVITDHGVVPLLSKLANTNNDKLRRHLAEAISRCCMWGRNRVAFGEHKAVAPLVRYLKSNDTNVHRATAQALYQLSEDADNCITMHENGAVKLLLDMVGSPDQDLQEAAAGCISNIRRLALATEKARYN |  | binds |
| IFT81 (mouse), FLAG- or HA-tagged (protein, UniProt O35594 1-676) MSDQIKFIVDSLNKEPFKKNYNLITFDSLGPMQLLQVLNDVLAEIDPKQDVDIREEMPEQTAKRMLNLLGILKYKPPGNATDMSTFRQGLVIGSKPVIYPVLHWLLQRSNELKKRAYLARFLIKLEVPSEFLQDETVADTNKQYEELMEAFKTLHKECEQLKTSGFSTAEIRRDISAMEEEKDQLMKRVERLKKRVETVQNHQRMLKIARQLRVEKEREEFLAQQKQEQKNQLFHAVQRLQRVQNQLKSMRHAAADAKPESLMKRLEEEIKFNSYMVTEKFPKELESKKKELHFLQKVVSEPAMGHSDLLELETKVNEVNTEINQLIEKKMMRNEPIEGKLSLYRQQASIISRKKEAKAEELQETKEKLASLEREVLVKTNQTREFDGTEVLKGDEFKRYVSKLRSKSTVFKKKHQIIAEFKAEFGLLQRTEELLKQRQETIQHQLRTIEEKKGISGYSYTQEELERVSALKSEVDEMKGRTLDDMSEMVKKLNSLVSEKKSALAPVIKELRQLRQKCQELTQECDEKKAQYDSCAAGLESNRSKLEQEVRGLREECLQEESKYHYTNCMIKNLEVELRRATDEMKAYVSSDQQEKRKAIREQYTKNITEQENLGKKLREKQKAVRESHGPNMKQAKMWRDLEQLMECKKQCFLKQQSPASIGQVIQEGGEDRLVL |  | binds |
| DYNLRB2 (mouse), FLAG- or HA-tagged (protein, UniProt Q9DAJ5 1-96) MTEVEETLKRIQSHKGVIGTMVVNAEGIPIRTTLDNSTTVQYAGLLHQLTMKAKSTVRDIDPQNDLTFLRIRSKKHEIMVAPDKEYLLIVIQNPCE |  | no binding |
